Experimental data as given in patent publication US5373089A (Northwestern University, priority 1993, dated 1994).

Test: general procedure: Boc solid-phase peptide synthesis; Boc-Gly-Resin (0.7 mmol of Boc-Gly/g) on 200-400 mesh chloromethylated resin (BioRad)
Details: whole synthesis, scale 0.5 mmole

For [(S)Pmp^1,D-Trp^2,Pen^6,Arg^6 ]OT, the isolated yield (from initial resin) was 42% and the isolated mass was 240 mg.
